# Results are given in words; binding and its absence hold for the method and conditions named. Binding can be weak; no strength is given. For some of these results: Binding seen in cells or lysates may run through a third protein. For some of these results: Tags and fused reporters may be left off the sequences shown.
# Chains of the proteins cited; added tags and fusions are not shown. Lines headed by an entry give the natural chain unless they say otherwise; changes in a name come on top.
# UniProt Q7XWV4: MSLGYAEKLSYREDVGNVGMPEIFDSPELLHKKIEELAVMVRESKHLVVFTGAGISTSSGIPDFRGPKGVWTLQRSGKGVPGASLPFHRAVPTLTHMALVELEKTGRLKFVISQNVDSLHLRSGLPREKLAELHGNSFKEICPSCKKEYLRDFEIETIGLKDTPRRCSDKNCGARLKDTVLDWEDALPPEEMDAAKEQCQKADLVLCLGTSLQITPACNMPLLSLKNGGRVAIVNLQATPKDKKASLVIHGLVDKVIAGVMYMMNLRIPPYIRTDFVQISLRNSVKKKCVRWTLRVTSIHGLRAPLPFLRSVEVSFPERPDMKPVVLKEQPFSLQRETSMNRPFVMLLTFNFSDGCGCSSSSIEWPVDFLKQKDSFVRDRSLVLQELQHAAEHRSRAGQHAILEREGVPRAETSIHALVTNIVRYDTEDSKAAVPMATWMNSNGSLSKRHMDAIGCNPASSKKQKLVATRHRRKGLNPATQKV
# UniProt Q5VNK1: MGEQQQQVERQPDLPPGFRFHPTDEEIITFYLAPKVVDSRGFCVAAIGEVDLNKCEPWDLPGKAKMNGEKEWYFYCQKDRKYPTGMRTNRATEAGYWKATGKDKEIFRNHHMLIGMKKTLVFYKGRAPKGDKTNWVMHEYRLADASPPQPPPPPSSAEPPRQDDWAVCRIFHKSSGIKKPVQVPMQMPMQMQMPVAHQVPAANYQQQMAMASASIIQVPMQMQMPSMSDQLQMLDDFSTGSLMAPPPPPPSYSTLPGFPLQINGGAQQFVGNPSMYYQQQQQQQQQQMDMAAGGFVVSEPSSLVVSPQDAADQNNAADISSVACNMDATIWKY
# UniProt Q9FTY0: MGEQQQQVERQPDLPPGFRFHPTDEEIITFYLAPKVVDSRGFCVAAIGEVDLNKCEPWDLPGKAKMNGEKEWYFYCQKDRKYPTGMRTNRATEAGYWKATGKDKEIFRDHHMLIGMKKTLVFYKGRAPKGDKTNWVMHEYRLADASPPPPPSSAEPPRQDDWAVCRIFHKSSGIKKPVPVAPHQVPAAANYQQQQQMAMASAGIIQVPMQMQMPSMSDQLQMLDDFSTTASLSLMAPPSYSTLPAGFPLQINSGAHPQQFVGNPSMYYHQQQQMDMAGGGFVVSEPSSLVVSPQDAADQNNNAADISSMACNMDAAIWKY
# UniProt Q6H8A9: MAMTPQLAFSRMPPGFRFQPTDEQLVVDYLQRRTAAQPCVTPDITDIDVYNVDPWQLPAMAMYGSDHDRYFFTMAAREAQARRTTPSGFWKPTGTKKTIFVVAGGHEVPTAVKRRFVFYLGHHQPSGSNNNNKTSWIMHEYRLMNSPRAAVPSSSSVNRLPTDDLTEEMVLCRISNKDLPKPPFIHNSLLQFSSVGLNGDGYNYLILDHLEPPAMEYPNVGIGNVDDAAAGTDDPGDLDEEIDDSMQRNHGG
# Tests used:
# [1] = biological target: SRT701 (rice (Oryza sativa)) (UniProt Q7XWV4); test: two-hybrid
# [2] = biological target: T1, OsTPL (rice (Oryza sativa)) (UniProt Q0J7U6); test: two-hybrid
# T1 sequence: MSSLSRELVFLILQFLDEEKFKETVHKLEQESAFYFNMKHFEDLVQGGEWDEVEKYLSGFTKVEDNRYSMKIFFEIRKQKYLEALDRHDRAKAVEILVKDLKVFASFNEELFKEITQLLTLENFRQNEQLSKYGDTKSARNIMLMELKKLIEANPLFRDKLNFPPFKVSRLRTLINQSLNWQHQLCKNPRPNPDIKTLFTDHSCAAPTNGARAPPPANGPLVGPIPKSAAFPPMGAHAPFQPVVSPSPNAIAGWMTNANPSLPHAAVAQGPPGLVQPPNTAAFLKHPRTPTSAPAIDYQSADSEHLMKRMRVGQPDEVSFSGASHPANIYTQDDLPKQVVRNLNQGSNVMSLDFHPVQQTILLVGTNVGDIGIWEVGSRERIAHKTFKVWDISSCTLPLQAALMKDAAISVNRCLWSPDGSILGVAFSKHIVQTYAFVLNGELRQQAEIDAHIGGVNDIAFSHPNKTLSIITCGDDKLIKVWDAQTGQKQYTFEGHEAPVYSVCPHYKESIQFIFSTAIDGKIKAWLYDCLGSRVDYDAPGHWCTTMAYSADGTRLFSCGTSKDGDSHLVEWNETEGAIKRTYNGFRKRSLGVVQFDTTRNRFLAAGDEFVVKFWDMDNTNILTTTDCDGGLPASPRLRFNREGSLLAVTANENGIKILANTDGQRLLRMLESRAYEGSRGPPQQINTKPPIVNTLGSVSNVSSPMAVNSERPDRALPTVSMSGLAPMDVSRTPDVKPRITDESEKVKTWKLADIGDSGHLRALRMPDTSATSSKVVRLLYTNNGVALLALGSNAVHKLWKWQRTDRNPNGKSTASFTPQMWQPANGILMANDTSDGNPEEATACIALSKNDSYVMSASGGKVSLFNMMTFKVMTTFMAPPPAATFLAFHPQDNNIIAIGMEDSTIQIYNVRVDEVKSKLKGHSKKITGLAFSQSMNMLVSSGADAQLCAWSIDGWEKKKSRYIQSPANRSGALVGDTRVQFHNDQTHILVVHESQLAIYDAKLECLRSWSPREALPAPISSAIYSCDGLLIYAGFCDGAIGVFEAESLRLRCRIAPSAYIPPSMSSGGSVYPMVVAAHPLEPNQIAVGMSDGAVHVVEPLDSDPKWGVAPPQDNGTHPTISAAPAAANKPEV
# [3] = biological target: GST_ONAC026 (rice (Oryza sativa)) (UniProt Q5VNK1); test: pull-down
# [4] = biological target: GST_ONAC020 (rice (Oryza sativa)) (UniProt Q9FTY0); test: pull-down
# [5] = biological target: MBP_ONAC023 (rice (Oryza sativa)) (UniProt Q6H8A9); test: pull-down
# [6] = biological target: MBP_ONAC026 (rice (Oryza sativa)) (UniProt Q5VNK1); test: pull-down
# [7] = biological target: MBP_ZOS1-15 (rice (Oryza sativa)) (UniProt B7F136); test: pull-down
# [8] = biological target: MBP_OsTPL (rice (Oryza sativa)) (UniProt Q0J7U6); test: pull-down
# [9] = biological target: T2, TPL_MYC (rice (Oryza sativa)) (UniProt Q0J7U6); test: co-IP
# T2 sequence: T1 sequence
# [10] = biological target: GST_ZOS1-15 (rice (Oryza sativa)) (UniProt B7F136); test: pull-down
substance,measurement,setting,value
ZOS1-15 (from UniProt B7F136),binding,[1],binds
same,binding,[2],binds
MBP_ONAC023 (from UniProt Q6H8A9),binding,[3],binds
MBP_ONAC026 (from UniProt Q5VNK1),binding,[4],binds
GST_ONAC026 (from UniProt Q5VNK1),binding,[5],binds
GST_ONAC020 (from UniProt Q9FTY0),binding,[6],binds
GST_ZOS1-15 (from UniProt B7F136),binding,[7],binds
same,binding,[8],binds
YFP_ZOS1-15 (rice (Oryza sativa)),binding,[9],binds
MBP_ZOS1-15 (from UniProt B7F136),binding,[10],binds

# — paper doi:10.1101/2024.07.15.603577
